Measured values taken from the supplement of paper PMC10849652.
Some of the results follow.

Amino acid sequences for entries named in this document (tags omitted). A change or cut given only in a name is not applied to a line headed by its entry.
UniProt Q92844: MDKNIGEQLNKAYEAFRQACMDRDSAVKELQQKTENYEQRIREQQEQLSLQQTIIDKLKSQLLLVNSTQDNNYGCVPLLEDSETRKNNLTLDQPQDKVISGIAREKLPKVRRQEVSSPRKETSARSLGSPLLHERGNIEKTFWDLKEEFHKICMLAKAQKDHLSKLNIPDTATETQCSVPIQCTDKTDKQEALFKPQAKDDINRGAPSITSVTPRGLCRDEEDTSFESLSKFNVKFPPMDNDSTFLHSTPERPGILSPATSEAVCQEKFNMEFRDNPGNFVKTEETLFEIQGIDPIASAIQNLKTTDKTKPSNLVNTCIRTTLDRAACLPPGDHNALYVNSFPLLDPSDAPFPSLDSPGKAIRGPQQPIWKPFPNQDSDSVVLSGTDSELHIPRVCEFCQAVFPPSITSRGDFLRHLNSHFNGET
UniProt P61764, whole entry, looked up: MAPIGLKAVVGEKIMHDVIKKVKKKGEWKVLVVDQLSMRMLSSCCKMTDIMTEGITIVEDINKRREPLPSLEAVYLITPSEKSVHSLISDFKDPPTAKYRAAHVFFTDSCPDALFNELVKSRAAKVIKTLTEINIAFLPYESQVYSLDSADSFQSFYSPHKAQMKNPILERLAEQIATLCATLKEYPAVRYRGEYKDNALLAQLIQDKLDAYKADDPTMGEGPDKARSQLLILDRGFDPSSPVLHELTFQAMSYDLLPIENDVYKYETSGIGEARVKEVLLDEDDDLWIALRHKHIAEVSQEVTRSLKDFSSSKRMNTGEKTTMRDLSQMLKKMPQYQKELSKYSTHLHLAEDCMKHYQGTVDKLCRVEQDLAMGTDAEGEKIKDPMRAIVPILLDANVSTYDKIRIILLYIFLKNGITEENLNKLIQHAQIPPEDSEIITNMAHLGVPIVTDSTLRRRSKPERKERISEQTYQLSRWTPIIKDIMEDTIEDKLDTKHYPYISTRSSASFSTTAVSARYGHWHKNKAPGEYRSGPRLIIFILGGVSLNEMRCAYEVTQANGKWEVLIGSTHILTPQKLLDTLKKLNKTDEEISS
UniProt P08842: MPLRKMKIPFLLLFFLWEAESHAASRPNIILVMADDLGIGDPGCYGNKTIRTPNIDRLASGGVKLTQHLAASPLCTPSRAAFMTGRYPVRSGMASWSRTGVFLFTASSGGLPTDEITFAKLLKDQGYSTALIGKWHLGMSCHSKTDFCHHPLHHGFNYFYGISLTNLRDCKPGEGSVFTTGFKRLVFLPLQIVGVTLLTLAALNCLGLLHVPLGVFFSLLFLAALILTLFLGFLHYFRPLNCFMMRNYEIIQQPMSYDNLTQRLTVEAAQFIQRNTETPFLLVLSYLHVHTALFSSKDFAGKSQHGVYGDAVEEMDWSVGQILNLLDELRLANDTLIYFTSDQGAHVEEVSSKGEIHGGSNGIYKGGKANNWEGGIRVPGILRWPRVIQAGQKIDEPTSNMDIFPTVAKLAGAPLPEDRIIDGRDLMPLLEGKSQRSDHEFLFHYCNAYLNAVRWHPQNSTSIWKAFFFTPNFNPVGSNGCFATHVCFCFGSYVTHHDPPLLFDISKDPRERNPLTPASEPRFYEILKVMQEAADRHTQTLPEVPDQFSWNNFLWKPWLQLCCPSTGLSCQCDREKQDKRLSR
UniProt A2RTX5: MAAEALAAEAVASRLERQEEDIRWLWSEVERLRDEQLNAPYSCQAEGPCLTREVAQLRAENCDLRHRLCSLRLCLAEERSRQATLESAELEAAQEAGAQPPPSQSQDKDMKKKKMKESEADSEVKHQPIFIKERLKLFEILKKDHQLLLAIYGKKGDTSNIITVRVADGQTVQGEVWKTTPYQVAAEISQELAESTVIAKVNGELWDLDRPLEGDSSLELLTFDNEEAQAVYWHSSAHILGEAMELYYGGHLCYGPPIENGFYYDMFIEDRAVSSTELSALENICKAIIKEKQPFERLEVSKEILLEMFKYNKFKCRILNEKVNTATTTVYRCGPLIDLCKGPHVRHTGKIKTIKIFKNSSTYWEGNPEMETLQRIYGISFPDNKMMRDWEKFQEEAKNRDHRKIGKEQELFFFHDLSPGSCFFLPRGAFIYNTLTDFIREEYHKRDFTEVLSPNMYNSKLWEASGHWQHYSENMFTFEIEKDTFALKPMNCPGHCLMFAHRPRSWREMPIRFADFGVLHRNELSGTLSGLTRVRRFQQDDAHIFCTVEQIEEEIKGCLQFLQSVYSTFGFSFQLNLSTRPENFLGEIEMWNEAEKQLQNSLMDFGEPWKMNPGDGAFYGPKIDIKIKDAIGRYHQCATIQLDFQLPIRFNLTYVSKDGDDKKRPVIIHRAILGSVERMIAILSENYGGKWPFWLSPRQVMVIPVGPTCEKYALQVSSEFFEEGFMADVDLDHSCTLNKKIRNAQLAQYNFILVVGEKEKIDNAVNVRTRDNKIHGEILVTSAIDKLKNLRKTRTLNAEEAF
UniProt Q13277: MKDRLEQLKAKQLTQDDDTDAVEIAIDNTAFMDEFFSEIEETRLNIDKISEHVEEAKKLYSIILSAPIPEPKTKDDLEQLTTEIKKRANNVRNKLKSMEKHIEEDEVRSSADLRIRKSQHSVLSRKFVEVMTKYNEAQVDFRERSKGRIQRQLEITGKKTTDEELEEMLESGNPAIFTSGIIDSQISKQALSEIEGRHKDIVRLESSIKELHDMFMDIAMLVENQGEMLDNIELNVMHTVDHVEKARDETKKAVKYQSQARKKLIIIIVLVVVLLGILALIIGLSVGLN
UniProt Q01995: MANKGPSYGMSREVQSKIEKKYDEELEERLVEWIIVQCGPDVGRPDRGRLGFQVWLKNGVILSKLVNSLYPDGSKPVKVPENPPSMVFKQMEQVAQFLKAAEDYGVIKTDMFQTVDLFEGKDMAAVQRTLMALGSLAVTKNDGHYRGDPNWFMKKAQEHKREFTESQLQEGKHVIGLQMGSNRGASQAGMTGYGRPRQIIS
UniProt Q7RTN6: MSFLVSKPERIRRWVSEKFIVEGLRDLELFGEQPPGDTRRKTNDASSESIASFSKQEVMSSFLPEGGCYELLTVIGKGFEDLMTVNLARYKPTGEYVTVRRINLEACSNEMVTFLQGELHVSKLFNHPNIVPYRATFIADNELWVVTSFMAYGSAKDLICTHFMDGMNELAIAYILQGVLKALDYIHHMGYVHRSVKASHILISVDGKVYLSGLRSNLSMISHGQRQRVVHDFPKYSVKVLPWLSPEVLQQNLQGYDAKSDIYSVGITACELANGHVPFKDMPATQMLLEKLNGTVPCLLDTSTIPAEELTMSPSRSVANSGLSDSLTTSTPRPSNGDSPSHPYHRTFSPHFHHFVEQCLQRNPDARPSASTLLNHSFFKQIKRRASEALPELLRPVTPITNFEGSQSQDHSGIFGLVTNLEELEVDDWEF
UniProt O75683: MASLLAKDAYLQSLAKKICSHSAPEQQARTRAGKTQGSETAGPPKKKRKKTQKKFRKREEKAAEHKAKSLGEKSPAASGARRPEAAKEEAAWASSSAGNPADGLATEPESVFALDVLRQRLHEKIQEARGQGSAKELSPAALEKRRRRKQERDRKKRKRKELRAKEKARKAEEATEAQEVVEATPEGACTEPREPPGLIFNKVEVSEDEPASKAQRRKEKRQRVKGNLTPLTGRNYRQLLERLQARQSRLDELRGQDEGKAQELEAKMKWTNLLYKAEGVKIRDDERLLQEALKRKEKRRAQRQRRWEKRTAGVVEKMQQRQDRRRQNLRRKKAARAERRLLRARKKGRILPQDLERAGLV
UniProt P61956, whole entry, looked up: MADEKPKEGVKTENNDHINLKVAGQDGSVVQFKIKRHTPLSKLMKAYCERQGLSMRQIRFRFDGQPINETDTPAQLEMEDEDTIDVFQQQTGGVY
UniProt Q6P1X5, whole entry, looked up: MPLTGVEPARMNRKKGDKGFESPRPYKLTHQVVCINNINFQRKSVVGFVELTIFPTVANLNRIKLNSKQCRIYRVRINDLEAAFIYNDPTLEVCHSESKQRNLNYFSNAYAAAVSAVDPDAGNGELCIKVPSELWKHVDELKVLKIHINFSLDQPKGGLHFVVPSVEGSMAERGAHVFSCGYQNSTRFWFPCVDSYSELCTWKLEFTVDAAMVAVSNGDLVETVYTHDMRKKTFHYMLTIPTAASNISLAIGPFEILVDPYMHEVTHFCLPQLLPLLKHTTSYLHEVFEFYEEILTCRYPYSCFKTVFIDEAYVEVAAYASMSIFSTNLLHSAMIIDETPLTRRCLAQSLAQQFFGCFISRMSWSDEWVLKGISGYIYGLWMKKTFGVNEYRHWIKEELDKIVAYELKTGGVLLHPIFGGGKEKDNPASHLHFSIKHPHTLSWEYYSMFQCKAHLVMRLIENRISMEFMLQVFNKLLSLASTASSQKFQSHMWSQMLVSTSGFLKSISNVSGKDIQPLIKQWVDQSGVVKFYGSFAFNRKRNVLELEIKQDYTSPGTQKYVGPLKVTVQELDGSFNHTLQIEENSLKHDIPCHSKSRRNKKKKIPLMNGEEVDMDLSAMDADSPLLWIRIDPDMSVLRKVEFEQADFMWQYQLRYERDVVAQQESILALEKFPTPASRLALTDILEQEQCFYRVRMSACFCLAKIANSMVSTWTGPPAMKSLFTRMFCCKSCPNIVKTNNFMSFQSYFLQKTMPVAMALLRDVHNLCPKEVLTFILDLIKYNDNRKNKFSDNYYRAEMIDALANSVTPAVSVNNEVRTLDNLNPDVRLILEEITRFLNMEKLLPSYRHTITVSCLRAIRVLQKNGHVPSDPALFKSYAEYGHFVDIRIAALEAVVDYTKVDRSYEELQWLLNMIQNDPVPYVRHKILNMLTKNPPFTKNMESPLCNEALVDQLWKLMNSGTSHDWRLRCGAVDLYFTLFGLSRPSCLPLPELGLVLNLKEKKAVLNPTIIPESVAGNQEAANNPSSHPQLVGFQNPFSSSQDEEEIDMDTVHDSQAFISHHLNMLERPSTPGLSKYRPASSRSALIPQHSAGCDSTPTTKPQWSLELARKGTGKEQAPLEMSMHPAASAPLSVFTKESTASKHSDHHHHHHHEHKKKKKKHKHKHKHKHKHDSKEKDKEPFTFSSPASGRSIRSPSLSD
UniProt Q13033: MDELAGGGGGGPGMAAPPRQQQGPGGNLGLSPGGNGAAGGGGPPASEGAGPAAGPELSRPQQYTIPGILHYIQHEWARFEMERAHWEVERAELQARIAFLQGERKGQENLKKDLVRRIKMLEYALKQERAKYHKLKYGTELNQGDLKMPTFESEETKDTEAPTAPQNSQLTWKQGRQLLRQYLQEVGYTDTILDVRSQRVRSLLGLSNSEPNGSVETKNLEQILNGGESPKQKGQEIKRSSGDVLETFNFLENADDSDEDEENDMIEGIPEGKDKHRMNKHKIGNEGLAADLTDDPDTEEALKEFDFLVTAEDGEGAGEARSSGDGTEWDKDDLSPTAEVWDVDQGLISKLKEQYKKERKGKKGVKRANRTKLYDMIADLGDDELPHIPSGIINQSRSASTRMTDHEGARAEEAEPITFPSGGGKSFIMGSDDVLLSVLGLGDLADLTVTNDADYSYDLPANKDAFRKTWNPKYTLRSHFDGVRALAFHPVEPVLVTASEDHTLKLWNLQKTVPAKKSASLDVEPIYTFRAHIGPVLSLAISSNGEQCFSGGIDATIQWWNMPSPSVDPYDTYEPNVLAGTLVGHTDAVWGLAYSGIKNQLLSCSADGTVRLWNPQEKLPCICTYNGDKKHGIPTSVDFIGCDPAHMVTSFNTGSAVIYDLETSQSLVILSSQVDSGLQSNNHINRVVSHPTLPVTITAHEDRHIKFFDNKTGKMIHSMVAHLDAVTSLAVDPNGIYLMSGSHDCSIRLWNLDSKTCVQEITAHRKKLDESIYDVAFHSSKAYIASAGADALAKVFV
UniProt Q8IWZ8: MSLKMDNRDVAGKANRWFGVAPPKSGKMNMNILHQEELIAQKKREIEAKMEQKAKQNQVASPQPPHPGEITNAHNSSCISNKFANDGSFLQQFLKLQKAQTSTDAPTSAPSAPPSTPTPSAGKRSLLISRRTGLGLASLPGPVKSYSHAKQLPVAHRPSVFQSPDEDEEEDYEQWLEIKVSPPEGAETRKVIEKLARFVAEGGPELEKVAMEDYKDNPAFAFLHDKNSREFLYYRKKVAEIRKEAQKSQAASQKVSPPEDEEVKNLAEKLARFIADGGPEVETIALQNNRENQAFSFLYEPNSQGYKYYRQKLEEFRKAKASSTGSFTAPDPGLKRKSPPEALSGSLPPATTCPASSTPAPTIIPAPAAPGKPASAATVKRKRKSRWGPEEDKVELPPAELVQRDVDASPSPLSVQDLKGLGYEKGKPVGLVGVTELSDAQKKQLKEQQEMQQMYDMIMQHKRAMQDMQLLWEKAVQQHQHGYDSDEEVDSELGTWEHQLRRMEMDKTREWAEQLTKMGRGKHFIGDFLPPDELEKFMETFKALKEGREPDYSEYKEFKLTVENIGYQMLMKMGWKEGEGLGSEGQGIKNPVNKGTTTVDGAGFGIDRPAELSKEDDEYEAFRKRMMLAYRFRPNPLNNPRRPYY

Assays:
Assay in all cases: log2 fold change, soluble protein after heating vs DMSO (PISA); higher = thermal stabilisation; K562 cells, 10 uM, 30 min; active = over 0.2 and 3.5 SD of the protein, either way, in both replicates (recomputed)
[1] = compound: C1=CC=C(C=C1)[C@H](COC2=CC3=C(C=C2)NC(=O)N3)NC(=O)C4=CC=CN(C4=O)CC5=CC(=C(C=C5)F)F
Summary of the method: (§1)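 K562 cells at 2×10^6 cells/mL were treated for 30 min with 10 μM compound, and aliquots were heated for 3 min over 48°C-58°C before pooling. Extraction used PBS with 0.5% NP-40 at 4°C, and soluble protein was the supernatant after 21,000xg for 90 min, measured by TMTpro 16plex LC-MS/MS with channel sums equalised. Thermal stability values, relative to control samples and from duplicates, are log2 fold changes.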

[2] = compound: CC1=C(SC2=C1C(=N[C@H](C3=NN=C(N32)C)CC(=O)N)C4=CC=C(C=C4)Cl)C
Summary of the method: as §1

[3] = compound: CC1=C2C(=CC=C1)N=C(N(C2=O)C3=CC=CC=C3C)CN4C=NC5=C(N=CN=C54)N
Summary of the method: as §1

[4] = compound: Cc1sc2c(c1C)C(c1ccc(Cl)cc1)=N[C@@H](CC(=O)OC(C)(C)C)c1nnc(C)n1-2
Summary of the method: as §1

[5] = compound: c1ccc([C@@H]2C[C@H]2NC2CCNCC2)cc1
Summary of the method: as §1

Measured: log2 fold change

SURF2 (UniProt Q15527)
inactive: [1] 0.056 | [2] -0.018 | [3] 0.033 | [4] -0.047 | [5] -0.044

STK36 (UniProt Q9NRP7)
inactive: [1] 0

STX6 (UniProt O43752)
inactive: [1] 0.004 | [2] 0.016 | [3] 0.057 | [4] 0.009 | [5] 0.033

SYK (UniProt P43405)
inactive: [1] 0.21 | [2] -0.221 | [3] -0.041 | [4] 0.132 | [5] -0.105

TANK (UniProt Q92844)
inactive: [1] -0.001 | [2] -0.093 | [3] -0.019 | [4] 0.02 | [5] 0.026

SUPT7L (UniProt O94864)
inactive: [1] -0.174

SYPL1 (UniProt Q16563)
inactive: [1] 0.018 | [2] 0.061 | [3] 0.082 | [4] -0.005 | [5] 0.033

STK38L (UniProt Q9Y2H1)
inactive: [1] -0.009 | [3] 0.162 | [4] 0.07 | [5] 0.224
active: [2] 0.472

SUPT4H1 (UniProt P63272)
inactive: [1] 0.013 | [2] 0.192 | [3] 0.092 | [4] 0.002 | [5] 0.005

SUN2 (UniProt Q9UH99)
inactive: [1] 0.029 | [2] -0.004 | [3] -0.025 | [4] 0.025 | [5] -0.015

Looked up one by one from the entries so far, 3 records:
SYPL1 (UniProt Q16563)
inactive: [1] 0.018 | [2] 0.061 | [3] 0.082 | [4] -0.005 | [5] 0.033

SUPT4H1 (UniProt P63272)
inactive: [1] 0.013 | [2] 0.192 | [3] 0.092 | [4] 0.002 | [5] 0.005

STK38L (UniProt Q9Y2H1)
inactive: [1] -0.009 | [3] 0.162 | [4] 0.07 | [5] 0.224
active: [2] 0.472

(cont.)

STXBP1 (UniProt P61764)
inactive: [1] -0.106 | [2] -0.027 | [3] 0.339 | [4] -0.069 | [5] -0.128

STS (UniProt P08842)
inactive: [1] -0.009

TAF5L (UniProt O75529)
inactive: [1] -0.218

STK26 (UniProt Q9P289)
inactive: [1] -0.077 | [2] -0.029 | [3] -0.006 | [4] 0.004 | [5] 0.026

STRBP (UniProt Q96SI9)
inactive: [1] 0.2 | [2] -0.053 | [3] 0.154 | [4] 0.152 | [5] 0.12

TARSL2 (UniProt A2RTX5)
inactive: [1] -0.04 | [2] 0.079 | [3] 0.067 | [4] 0.006 | [5] -0.056

STX12 (UniProt Q86Y82)
inactive: [1] 0.019 | [2] 0.007 | [3] 0.014 | [4] -0.002 | [5] 0.019

SULT1A3 isoform 3 (UniProt P0DMM9)
inactive: [1] -0.049 | [2] -0.091 | [3] 0.165 | [4] 0.009 | [5] -0.089

TARBP1 (UniProt Q13395)
inactive: [1] -0.058 | [2] 0.048 | [3] 0.081 | [4] -0.073 | [5] -0.027

TAOK3 (UniProt Q9H2K8)
inactive: [1] 0 | [2] 0.057 | [3] 0.002 | [4] -0.003 | [5] -0.024

TACC2 (UniProt O95359)
inactive: [1] -0.031 | [2] -0.03 | [3] 0.166 | [4] 0.011 | [5] 0.05

STX3 (UniProt Q13277)
inactive: [1] -0.011 | [2] 0.058 | [3] -0.002 | [4] 0.011 | [5] 0.078

SULT1E1 (UniProt P49888)
inactive: [1] 0.068

SUPT5H (UniProt O00267)
inactive: [1] -0.05 | [2] 0.109 | [3] 0.106 | [4] 0.001 | [5] -0.051

TAGLN (UniProt Q01995)
inactive: [1] -0.062

STRADA (UniProt Q7RTN6)
inactive: [1] -0.006 | [2] 0.091 | [3] 0.005 | [4] 0.044 | [5] 0.07

SURF6 (UniProt O75683)
inactive: [1] 0.143 | [2] -0.133 | [3] 0.021 | [4] 0.199 | [5] 0.065

SUFU (UniProt Q9UMX1)
inactive: [1] -0.01

SUMO2 (UniProt P61956)
inactive: [1] 0.145 | [2] 0.021 | [3] -0.189 | [4] 0.12 | [5] 0.187

TAF2 (UniProt Q6P1X5)
inactive: [1] 0.05 | [2] -0.015 | [3] -0.051 | [4] 0.072 | [5] -0.234

STRN3 isoform 2 (UniProt Q13033)
inactive: [1] 0.029 | [2] 0.02 | [3] 0.113 | [4] -0.077 | [5] -0.176

SUGP1 (UniProt Q8IWZ8)
inactive: [1] 0 | [2] -0.001 | [3] 0.066 | [4] -0.046 | [5] 0.019

SUDS3 (UniProt Q9H7L9)
inactive: [1] -0.21 | [2] 0.125 | [3] -0.062 | [4] 0.12 | [5] -0.07
